Results are given in words; binding and its absence hold for the method and conditions named. Some results given as binding are weak or reduced against the parent protein; the word gives no strength. Where a sequence is shown, tags or fusion partners need not be part of it.
Target: GST-AIP4 (atrophin-interacting protein 4), Q96J02
Experiment: pull-down; GST-AIP4 or GST immobilised on glutathione-Sepharose (600 nM in the methods, 1 μM in the legend); purified WT βarr1 or βarr1-4A (100 nM in the methods, 500 ng in the legend); 4 °C, 2 h; 20 mM Tris-HCl pH 7.5, 150 mM NaCl, 0.1% Triton X-100, 1 mM DTT; bound βarr1 detected by …; both purified
Details: remark: other sources report otherwise

- binding: binds
B1: βarrestin1 (untagged, wild type), P49407 1-418 (protein)
chain: MGDKGTRVFKKASPNGKLTVYLGKRDFVDHIDLVDPVDGVVLVDPEYLKERRVYVTLTCAFRYGREDLDVLGLTFRKDLFVANVQSFPPAPEDKKPLTRLQERLIKKLGEHAYPFTFEIPPNLPCSVTLQPGPEDTGKACGVDYEVKAFCAENLEEKIHKRNSVRLVIRKVQYAPERPGPQPTAETTRQFLMSDKPLHLEASLDKEIYYHGEPISVNVHVTNNTNKTVKKIKISVRQYADICLFNTAQYKCPVAMEEADDTVAPSSTFCKVYTLTPFLANNREKRGLALDGKLKHEDTNLASSTLLREGANREILGIIVSYKVKVKLVVSRGGLLGDLASSDVAVELPFTLMHPKPKEEPPHREVPENETPVDTNLIELDTNDDDIVFEDFARQRLKGMKDDKEEEEDGTGSPQLNNR

— publication PMC10755771
